In the supplement of paper PMC8728848:
Some of the results follow.

Experiments:
Experiment in all cases: glycan array binding signal (z-score within array); higher = stronger binding
Conditions in all cases: glycan notation: IUPAC condensed, linker removed
[1] = target: Gal(b1-4)GlcNAc(b1-3)Gal(b1-4)GlcNAc(b1-3)Gal(b1-4)GlcNAc(b1-3)Gal(b1-4)GlcNAc(b1-3)Gal(b1-4)GlcNAc(b1-2)Man(a1-3)[Gal(b1-4)GlcNAc(b1-3)Gal(b1-4)GlcNAc(b1-3)Gal(b1-4)GlcNAc(b1-3)Gal(b1-4)GlcNAc(b1-3)Gal(b1-4)GlcNAc(b1-2)Man(a1-6)]Man(b1-4)GlcNAc(b1-4)[Fuc(a1-6)]GlcNAc
How it was run: (§1)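 The binding signal is a Z-score computed within each array and averaged over linkers. Arrays of the same protein sequence at different concentrations or buffers were also averaged together. Data originate from 3228 arrays in the Consortium for Functional Glycomics database, kept only where the protein sequence was available.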

[2] = target: Gal(b1-4)GlcNAc(b1-3)Gal(b1-4)GlcNAc(b1-3)Gal(b1-4)GlcNAc(b1-3)Gal(b1-4)GlcNAc(b1-3)Gal(b1-4)GlcNAc(b1-2)[Gal(b1-4)GlcNAc(b1-3)Gal(b1-4)GlcNAc(b1-3)Gal(b1-4)GlcNAc(b1-3)Gal(b1-4)GlcNAc(b1-3)Gal(b1-4)GlcNAc(b1-6)]Man(a1-6)[Gal(b1-4)GlcNAc(b1-3)Gal(b1-4)GlcNAc(b1-3)Gal(b1-4)GlcNAc(b1-3)Gal(b1-4)GlcNAc(b1-3)Gal(b1-4)GlcNAc(b1-2)Man(a1-3)]Man(b1-4)GlcNAc(b1-4)[Fuc(a1-6)]GlcNAc
How it was run: as §1

[3] = target: Gal(b1-4)GlcNAc(b1-3)Gal(b1-4)GlcNAc(b1-3)Gal(b1-4)GlcNAc(b1-3)Gal(b1-4)GlcNAc(b1-3)Gal(b1-4)GlcNAc(b1-3)Gal(b1-4)GlcNAc(b1-2)Man(a1-3)[Gal(b1-4)GlcNAc(b1-3)Gal(b1-4)GlcNAc(b1-3)Gal(b1-4)GlcNAc(b1-3)Gal(b1-4)GlcNAc(b1-3)Gal(b1-4)GlcNAc(b1-3)Gal(b1-4)GlcNAc(b1-2)Man(a1-6)]Man(b1-4)GlcNAc(b1-4)GlcNAc
How it was run: as §1

[4] = target: Gal(b1-4)GlcNAc(b1-3)Gal(b1-4)GlcNAc(b1-3)GalNAc
How it was run: as §1

[5] = target: Gal(b1-4)GlcNAc(b1-3)Gal(b1-4)GlcNAc(b1-3)[Gal(b1-4)GlcNAc(b1-3)Gal(b1-4)GlcNAc(b1-6)]GalNAc
How it was run: as §1

[6] = target: Gal(b1-4)GlcNAc(b1-3)Gal(b1-4)GlcNAc(b1-6)[Gal(b1-3)]GalNAc
How it was run: as §1

[7] = target: Gal(b1-4)GlcNAc(b1-3)Gal(b1-4)[Fuc(a1-3)GlcNAc(b1-6)]Gal(b1-4)Glc
How it was run: as §1

[8] = target: Gal(b1-4)GlcNAc(b1-3)Gal(b1-4)[Fuc(a1-3)]GlcNAc(b1-3)Gal(b1-4)[Fuc(a1-3)]GlcNAc
How it was run: as §1

[9] = target: Gal(b1-4)GlcNAc(b1-3)GalNAc
How it was run: as §1

[10] = target: Gal(b1-4)GlcNAc(b1-3)[Fuc(a1-3)GlcNAc(b1-6)]Gal(b1-4)Glc
How it was run: as §1

[11] = target: Gal(b1-4)GlcNAc(b1-3)[Gal(b1-4)GlcNAc(b1-6)]Gal(b1-4)GlcNAc
How it was run: as §1

[12] = target: Gal(b1-4)GlcNAc(b1-3)[Gal(b1-4)GlcNAc(b1-6)]GalNAc
How it was run: as §1

[13] = target: Gal(b1-4)GlcNAc(b1-3)[GlcNAc(b1-6)]Gal(b1-4)GlcNAc
How it was run: as §1

[14] = target: Gal(b1-4)GlcNAc(b1-6)Gal(b1-4)GlcNAc
How it was run: as §1

[15] = target: Gal(b1-4)GlcNAc(b1-6)GalNAc
How it was run: as §1

[16] = target: Gal(b1-4)GlcNAc(b1-6)[Gal(b1-3)]GalNAc
How it was run: as §1

[17] = target: Gal(b1-4)GlcNAc(b1-6)[Gal(b1-4)GlcNAc(b1-3)]GalNAc
How it was run: as §1

Gal(b1-4)GlcNAc6P = target: Gal(b1-4)GlcNAc6P
How it was run: as §1

Gal(b1-6)Gal = target: Gal(b1-6)Gal
How it was run: as §1

Gal3S(b1-3)GalNAc = target: Gal3S(b1-3)GalNAc
How it was run: as §1

Gal3S(b1-3)GlcNAc = target: Gal3S(b1-3)GlcNAc
How it was run: as §1

[18] = target: Gal3S(b1-3)[Fuc(a1-4)]GlcNAc
How it was run: as §1

Gal3S(b1-4)Glc = target: Gal3S(b1-4)Glc
How it was run: as §1

Gal3S(b1-4)Glc6S = target: Gal3S(b1-4)Glc6S
How it was run: as §1

Gal3S(b1-4)GlcNAc = target: Gal3S(b1-4)GlcNAc
How it was run: as §1

Gal3S(b1-4)GlcNAc6S = target: Gal3S(b1-4)GlcNAc6S
How it was run: as §1

[19] = target: Gal3S(b1-4)[Fuc(a1-3)]Glc
How it was run: as §1

[20] = target: Gal3S(b1-4)[Fuc(a1-3)]Glc6S
How it was run: as §1

[21] = target: Gal3S(b1-4)[Fuc(a1-3)]GlcNAc
How it was run: as §1

[22] = target: Gal3S(b1-4)[Fuc(a1-3)]GlcNAc6S
How it was run: as §1

Gal3S4S(b1-4)GlcNAc = target: Gal3S4S(b1-4)GlcNAc
How it was run: as §1

Gal3S6S(b1-4)GlcNAc = target: Gal3S6S(b1-4)GlcNAc
How it was run: as §1

Gal3S6S(b1-4)GlcNAc6S = target: Gal3S6S(b1-4)GlcNAc6S
How it was run: as §1

Gal4S(b1-4)GlcNAc = target: Gal4S(b1-4)GlcNAc
How it was run: as §1

Gal4S6S(b1-4)GlcNAc = target: Gal4S6S(b1-4)GlcNAc
How it was run: as §1

Gal6P(b1-4)GlcNAc = target: Gal6P(b1-4)GlcNAc
How it was run: as §1

Gal6S(b1-3)GlcNAc = target: Gal6S(b1-3)GlcNAc
How it was run: as §1

Gal6S(b1-3)GlcNAc6S = target: Gal6S(b1-3)GlcNAc6S
How it was run: as §1

B1: GST-Gap1 (Streptococcus parasanguinis), A1C3L5 (protein)
chain: MFYFVPSWYNGQRQWYYDTPWWFRVKNRMTFDDSVNQVKMFLQGQEEIGLMILNYQPQLRYFLHKQNIFGIYYWSFFDDIQNITRSYTKIIHLKDLNWPEGCEFLYSPFAVVVRLKGEIFAIVNYAEDGNLHSVSFQKNGKVTKDYIFDDRGFLSSILYYDIDERPLYQDYLNINGVWQVREFLKKENDPTPILMINDFSDQTFSKKYYNGWEELIKERLAIFQNNHVENEDVFVLASDTQHNQLVSSIFKEHRKIYSFFGNRFNLENLGQDRISINDATFLVVDTEKNEELLRKTCENLVFKSIPIVRLSPFDSRLRLGHSQTVKEQIIYFHIDNIELDELYSVIAIILELMTLHLDIELRIVTFRQDFQLDLLKTWIIDFIKTNHFEDLLFKQISEGENEIEDEGEIELSRIAMECFTNENQIIKCLDTARLVIDLGIEPDLYTQIASISAGIPQINRVSSDYVIHQKNGLVISDISKLSSAIEFYFDGLFNWNEALIYAVRKMSDYTSGKILKQWKGMLKKK
glycan array binding signal (z-score) [1]: -1.32
glycan array binding signal (z-score) [2]: 2.13
glycan array binding signal (z-score) [3]: 0.374
glycan array binding signal (z-score) [4]: 2.15
glycan array binding signal (z-score) [5]: 1.57
glycan array binding signal (z-score) [6]: -0.062
glycan array binding signal (z-score) [7]: -0.519
glycan array binding signal (z-score) [8]: -0.095
glycan array binding signal (z-score) [9]: 0.475
glycan array binding signal (z-score) [10]: -0.301
glycan array binding signal (z-score) [11]: 0.066
glycan array binding signal (z-score) [12]: -0.151
glycan array binding signal (z-score) [13]: 0.578
glycan array binding signal (z-score) [14]: -0.249
glycan array binding signal (z-score) [15]: 0.268
glycan array binding signal (z-score) [16]: 0.095
glycan array binding signal (z-score) [17]: 1
glycan array binding signal (z-score) (Gal(b1-4)GlcNAc6P): -1.02
glycan array binding signal (z-score) (Gal(b1-6)Gal): 0.538
glycan array binding signal (z-score) (Gal3S(b1-3)GalNAc): -0.28
glycan array binding signal (z-score) (Gal3S(b1-3)GlcNAc): 0.83
glycan array binding signal (z-score) [18]: -0.109
glycan array binding signal (z-score) (Gal3S(b1-4)Glc): 0.496
glycan array binding signal (z-score) (Gal3S(b1-4)Glc6S): 0.096
glycan array binding signal (z-score) (Gal3S(b1-4)GlcNAc): 0.12
glycan array binding signal (z-score) (Gal3S(b1-4)GlcNAc6S): 0.348
glycan array binding signal (z-score) [19]: -0.553
glycan array binding signal (z-score) [20]: 0.597
glycan array binding signal (z-score) [21]: 0.895
glycan array binding signal (z-score) [22]: -0.572
glycan array binding signal (z-score) (Gal3S4S(b1-4)GlcNAc): -0.342
glycan array binding signal (z-score) (Gal3S6S(b1-4)GlcNAc): -0.171
glycan array binding signal (z-score) (Gal3S6S(b1-4)GlcNAc6S): -0.183
glycan array binding signal (z-score) (Gal4S(b1-4)GlcNAc): -0.467
glycan array binding signal (z-score) (Gal4S6S(b1-4)GlcNAc): -0.08
glycan array binding signal (z-score) (Gal6P(b1-4)GlcNAc): 0.207
glycan array binding signal (z-score) (Gal6S(b1-3)GlcNAc): -0.285
glycan array binding signal (z-score) (Gal6S(b1-3)GlcNAc6S): 0.817
